Laboratory results from the supplement of paper PMC6411743.
± gives the standard deviation of the averaged measurements. This is a selection; strong and weak results do not stand in their true shares. Most entries show no effect beyond the scatter of the controls.

Amino acid sequences for entries named in this document (tags omitted). A change or cut given only in a name is not applied to a line headed by its entry.
UniProt O00411: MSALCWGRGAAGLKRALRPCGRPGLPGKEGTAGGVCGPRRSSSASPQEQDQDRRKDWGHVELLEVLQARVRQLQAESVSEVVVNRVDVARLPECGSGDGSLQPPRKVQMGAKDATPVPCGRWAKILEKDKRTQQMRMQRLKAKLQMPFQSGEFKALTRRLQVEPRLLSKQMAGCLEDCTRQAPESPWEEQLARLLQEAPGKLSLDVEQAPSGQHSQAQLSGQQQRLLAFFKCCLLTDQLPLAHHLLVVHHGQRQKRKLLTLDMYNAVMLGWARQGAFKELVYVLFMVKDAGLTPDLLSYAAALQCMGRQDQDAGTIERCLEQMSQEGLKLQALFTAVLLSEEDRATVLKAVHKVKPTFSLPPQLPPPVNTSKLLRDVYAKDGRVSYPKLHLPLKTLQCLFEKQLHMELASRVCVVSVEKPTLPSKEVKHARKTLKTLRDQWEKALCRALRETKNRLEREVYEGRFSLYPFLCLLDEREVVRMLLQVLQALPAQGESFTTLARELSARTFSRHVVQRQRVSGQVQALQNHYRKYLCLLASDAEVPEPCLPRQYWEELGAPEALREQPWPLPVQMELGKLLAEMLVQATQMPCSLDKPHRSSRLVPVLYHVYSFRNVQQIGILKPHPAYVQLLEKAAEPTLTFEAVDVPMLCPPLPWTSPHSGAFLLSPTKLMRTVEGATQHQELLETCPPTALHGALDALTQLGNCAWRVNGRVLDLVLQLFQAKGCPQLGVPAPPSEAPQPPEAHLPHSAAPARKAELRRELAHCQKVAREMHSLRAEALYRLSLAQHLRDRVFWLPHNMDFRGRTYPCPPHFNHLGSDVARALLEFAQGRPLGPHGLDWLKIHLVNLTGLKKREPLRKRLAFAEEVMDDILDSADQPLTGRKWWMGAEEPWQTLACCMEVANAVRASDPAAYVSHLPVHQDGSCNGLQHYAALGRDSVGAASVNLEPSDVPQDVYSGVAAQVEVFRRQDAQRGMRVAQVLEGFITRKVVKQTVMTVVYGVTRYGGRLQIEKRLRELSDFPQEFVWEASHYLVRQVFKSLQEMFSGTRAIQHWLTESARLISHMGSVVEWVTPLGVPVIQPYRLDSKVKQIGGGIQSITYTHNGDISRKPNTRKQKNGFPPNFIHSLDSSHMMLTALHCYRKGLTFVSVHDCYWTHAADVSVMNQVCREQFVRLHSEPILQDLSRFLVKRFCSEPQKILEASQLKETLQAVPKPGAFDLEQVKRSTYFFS
UniProt O43598: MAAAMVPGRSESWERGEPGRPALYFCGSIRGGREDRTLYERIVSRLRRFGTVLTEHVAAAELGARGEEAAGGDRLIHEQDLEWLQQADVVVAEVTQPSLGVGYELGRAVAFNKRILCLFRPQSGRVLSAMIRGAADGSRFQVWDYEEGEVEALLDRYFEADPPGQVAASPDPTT
UniProt O00148, whole entry: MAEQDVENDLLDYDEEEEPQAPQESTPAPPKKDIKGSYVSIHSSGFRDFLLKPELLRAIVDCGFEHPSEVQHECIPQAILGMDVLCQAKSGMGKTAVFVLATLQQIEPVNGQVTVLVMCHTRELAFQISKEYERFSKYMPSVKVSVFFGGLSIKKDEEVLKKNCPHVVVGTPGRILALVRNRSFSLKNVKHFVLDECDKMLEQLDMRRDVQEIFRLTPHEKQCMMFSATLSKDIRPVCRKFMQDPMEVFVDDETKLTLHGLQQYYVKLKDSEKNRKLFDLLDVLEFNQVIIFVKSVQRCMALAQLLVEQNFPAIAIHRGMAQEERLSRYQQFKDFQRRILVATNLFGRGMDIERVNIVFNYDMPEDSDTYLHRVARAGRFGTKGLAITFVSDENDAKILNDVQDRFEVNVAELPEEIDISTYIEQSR
UniProt O00255, whole entry: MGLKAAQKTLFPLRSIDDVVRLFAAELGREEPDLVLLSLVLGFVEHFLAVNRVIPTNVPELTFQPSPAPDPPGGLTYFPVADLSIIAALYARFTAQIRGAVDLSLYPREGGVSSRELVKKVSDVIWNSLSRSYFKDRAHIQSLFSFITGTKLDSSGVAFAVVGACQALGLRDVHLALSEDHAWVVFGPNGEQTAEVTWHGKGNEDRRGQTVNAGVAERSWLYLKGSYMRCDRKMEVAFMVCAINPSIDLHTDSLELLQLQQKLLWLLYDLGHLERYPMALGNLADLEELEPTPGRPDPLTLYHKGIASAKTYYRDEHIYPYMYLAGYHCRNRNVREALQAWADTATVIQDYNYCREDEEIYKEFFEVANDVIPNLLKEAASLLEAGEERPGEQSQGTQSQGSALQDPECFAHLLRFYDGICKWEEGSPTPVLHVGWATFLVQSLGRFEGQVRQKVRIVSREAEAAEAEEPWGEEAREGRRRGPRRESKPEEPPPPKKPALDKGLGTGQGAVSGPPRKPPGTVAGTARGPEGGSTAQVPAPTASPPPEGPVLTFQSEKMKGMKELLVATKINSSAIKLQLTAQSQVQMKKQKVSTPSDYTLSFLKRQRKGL
UniProt O43488: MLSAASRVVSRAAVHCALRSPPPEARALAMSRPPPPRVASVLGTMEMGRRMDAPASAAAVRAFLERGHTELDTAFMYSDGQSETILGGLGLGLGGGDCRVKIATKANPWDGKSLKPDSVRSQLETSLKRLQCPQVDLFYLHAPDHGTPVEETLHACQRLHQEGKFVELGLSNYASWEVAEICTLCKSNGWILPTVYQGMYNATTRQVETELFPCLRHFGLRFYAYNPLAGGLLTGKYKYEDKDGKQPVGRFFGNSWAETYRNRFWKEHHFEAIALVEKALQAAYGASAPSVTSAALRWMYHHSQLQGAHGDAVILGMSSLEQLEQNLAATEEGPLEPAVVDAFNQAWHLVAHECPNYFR
UniProt O43924: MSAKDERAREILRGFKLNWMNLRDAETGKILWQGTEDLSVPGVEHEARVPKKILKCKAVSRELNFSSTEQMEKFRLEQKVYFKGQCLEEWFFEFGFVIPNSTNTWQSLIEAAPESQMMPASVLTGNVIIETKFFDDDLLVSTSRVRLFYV
UniProt O15015: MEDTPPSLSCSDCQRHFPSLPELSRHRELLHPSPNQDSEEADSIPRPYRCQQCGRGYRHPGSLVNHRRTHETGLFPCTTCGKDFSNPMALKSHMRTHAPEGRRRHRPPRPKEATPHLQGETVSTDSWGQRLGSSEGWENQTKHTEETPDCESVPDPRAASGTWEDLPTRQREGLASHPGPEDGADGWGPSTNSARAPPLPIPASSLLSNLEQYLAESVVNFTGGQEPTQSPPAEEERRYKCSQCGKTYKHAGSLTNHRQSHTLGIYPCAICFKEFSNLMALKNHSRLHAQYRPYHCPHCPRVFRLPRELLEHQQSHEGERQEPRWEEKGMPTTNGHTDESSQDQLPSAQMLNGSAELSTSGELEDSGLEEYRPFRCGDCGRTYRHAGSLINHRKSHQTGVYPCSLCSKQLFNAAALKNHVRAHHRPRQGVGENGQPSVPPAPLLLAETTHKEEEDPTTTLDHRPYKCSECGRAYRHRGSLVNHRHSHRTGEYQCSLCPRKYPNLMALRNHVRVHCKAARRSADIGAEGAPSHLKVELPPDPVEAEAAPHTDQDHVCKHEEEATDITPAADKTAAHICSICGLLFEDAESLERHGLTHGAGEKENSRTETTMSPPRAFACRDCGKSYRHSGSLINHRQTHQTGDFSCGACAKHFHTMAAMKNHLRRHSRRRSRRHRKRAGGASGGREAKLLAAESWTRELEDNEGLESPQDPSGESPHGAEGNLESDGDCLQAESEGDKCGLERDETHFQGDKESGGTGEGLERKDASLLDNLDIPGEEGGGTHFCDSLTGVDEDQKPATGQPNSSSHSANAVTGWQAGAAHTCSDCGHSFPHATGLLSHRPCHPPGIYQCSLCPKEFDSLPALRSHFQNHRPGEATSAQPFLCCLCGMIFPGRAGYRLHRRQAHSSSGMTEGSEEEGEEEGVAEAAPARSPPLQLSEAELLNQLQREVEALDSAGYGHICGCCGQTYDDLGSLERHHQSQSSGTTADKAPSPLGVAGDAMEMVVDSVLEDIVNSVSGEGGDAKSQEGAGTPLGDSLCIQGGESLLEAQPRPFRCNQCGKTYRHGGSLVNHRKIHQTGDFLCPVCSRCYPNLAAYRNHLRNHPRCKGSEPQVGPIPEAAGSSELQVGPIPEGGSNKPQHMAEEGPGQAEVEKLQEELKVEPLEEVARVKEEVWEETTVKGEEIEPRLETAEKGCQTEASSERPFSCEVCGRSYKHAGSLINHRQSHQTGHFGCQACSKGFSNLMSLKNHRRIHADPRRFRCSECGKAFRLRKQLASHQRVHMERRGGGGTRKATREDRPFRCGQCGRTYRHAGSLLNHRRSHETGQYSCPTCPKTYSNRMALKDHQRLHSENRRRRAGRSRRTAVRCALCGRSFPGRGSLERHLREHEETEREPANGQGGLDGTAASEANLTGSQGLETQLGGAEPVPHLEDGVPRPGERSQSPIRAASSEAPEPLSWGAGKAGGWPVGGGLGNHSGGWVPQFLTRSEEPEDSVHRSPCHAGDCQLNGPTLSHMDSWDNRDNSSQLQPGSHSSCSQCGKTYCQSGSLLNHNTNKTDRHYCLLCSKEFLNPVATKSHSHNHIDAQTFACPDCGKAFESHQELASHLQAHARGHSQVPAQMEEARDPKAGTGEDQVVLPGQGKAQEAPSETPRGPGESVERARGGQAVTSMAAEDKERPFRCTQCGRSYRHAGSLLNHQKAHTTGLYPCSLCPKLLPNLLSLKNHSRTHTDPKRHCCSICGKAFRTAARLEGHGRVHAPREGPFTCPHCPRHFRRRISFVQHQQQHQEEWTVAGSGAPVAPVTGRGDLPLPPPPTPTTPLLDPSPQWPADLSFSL
UniProt O14880: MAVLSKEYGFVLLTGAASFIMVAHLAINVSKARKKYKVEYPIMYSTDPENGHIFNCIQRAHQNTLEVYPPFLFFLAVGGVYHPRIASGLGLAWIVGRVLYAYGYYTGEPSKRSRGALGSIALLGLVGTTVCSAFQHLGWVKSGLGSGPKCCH
UniProt O14975, whole entry, looked up: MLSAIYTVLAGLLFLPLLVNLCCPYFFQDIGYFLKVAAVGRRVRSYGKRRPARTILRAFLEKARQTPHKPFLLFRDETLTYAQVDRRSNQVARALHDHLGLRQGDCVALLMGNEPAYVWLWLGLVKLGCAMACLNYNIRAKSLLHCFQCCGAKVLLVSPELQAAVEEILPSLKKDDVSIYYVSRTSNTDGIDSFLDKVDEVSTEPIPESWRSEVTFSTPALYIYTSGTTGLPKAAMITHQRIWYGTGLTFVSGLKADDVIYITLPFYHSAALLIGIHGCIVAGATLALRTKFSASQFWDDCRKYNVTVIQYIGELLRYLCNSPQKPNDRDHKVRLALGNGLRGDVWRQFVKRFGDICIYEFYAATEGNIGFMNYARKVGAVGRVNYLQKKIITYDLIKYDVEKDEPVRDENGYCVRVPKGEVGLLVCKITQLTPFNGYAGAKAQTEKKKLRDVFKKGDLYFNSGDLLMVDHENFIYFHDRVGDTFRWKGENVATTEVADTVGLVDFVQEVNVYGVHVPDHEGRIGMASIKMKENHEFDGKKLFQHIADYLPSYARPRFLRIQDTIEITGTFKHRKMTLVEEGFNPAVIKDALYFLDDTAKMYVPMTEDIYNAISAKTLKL
UniProt O00116: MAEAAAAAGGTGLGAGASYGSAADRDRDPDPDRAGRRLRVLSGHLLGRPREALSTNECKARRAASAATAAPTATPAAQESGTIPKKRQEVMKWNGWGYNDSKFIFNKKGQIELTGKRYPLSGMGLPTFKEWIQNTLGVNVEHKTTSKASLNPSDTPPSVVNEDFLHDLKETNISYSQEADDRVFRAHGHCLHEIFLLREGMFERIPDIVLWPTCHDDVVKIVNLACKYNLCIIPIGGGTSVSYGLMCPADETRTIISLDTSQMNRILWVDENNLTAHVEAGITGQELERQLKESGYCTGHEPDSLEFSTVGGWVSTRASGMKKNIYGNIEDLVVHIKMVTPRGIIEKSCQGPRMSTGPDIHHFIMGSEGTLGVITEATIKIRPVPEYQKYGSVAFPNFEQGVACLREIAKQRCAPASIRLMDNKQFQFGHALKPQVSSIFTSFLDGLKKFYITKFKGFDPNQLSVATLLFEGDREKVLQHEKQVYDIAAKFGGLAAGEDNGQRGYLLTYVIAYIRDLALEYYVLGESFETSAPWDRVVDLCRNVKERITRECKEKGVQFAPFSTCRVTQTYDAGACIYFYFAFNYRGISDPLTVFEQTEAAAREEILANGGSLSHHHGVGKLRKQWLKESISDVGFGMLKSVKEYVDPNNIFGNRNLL
UniProt O15525: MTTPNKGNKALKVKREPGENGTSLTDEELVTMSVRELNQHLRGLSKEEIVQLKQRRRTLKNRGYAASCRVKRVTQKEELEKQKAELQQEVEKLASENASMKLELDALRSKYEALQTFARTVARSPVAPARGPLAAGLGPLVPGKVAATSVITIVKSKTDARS
UniProt O14735: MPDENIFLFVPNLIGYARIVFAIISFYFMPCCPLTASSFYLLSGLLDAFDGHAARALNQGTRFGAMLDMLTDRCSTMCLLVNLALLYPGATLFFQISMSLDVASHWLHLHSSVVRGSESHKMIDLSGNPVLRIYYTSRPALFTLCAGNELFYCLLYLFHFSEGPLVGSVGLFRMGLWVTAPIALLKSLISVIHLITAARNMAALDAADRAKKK

Compound: Nc1ncnc2c1ncn2[C@@H]1O[C@H](COP(=O)(O)OP(=O)(O)OP(=O)(O)O)[C@@H](O)[C@H]1O [adenosine triphosphate]
Assay: NP40-soluble protein abundance relative to vehicle (solubility fold change) (ratio); higher = more soluble protein in presence of ATP
Summary of the method: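 Values are fold changes against the detergent-processed vehicle, based on vsn-normalised intensities. Jurkat crude lysate was treated at eight concentrations from 0.1 to 10 mM (10 min at room temperature, then 3 min at 37 °C), solubilised with 0.8% NP40 and benzonase, ultracentrifuged and analysed by TMT-labelled LC-MS/MS over three independent experiments.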

Target	NP40-soluble protein abundance (concentration: 0.1mM)	NP40-soluble protein abundance (concentration: 0.5mM)
KPNA3 (UniProt O00505)	1.04 ± 0.12	1.05 ± 0.091
UniProt O43299 and related entries	1.05 ± 0.046	0.964 ± 0.03
POLRMT (UniProt O00411)	1.03 ± 0.038	1.06 ± 0.15
UniProt O00221 and related entries	0.917 ± 0.097	0.995 ± 0.097
PIK3R2 (UniProt O00459)	1.1 ± 0.083	1.02 ± 0.12
UniProt O43598 and related entries	0.939 ± 0.043	0.912 ± 0.061
PRPF3 (UniProt O43395)	1.09 ± 0.039	1.09 ± 0.026
KIF1C (UniProt O43896)	1.01 ± 0.043	1.05 ± 0.051
UniProt O00409 and related entries	0.997 ± 0.024	1.01 ± 0.095
UniProt O00148	1.04 ± 0.042	1.04 ± 0.056
UniProt O43164 and related entries	0.997 ± 0.023	1 ± 0.083
PRMT5 (UniProt O14744)	1.02 ± 0.038	1.04 ± 0.038
UniProt O00255 and related entries	1.05 ± 0.015	1.04 ± 0.021
XPOT (UniProt O43592)	1.01 ± 0.05	1 ± 0.013
M0R2A0 and related entries (UniProt Q5UCC4)	0.971 ± 0.051	0.967 ± 0.041
MCM3AP (UniProt O60318)	1.02 ± 0.015	1.01 ± 0.09
RRP9 (UniProt O43818)	1 ± 0.011	1.05 ± 0.048
VWA5A (UniProt O00534)	1.22 ± 0.12	1.17 ± 0.098
EEF2K (UniProt O00418)	1.02 ± 0.033	1.03 ± 0.051
RNF113A (UniProt O15541)	1.08 ± 0.035	1.098 ± 0.0068

At a glance, some entries already given:
Target	NP40-soluble protein abundance (concentration: 0.1mM)	NP40-soluble protein abundance (concentration: 0.5mM)
PRPF3 (UniProt O43395)	1.09 ± 0.039	1.09 ± 0.026
KIF1C (UniProt O43896)	1.01 ± 0.043	1.05 ± 0.051
UniProt O00409 and related entries	0.997 ± 0.024	1.01 ± 0.095
UniProt O00148	1.04 ± 0.042	1.04 ± 0.056
UniProt O43164 and related entries	0.997 ± 0.023	1 ± 0.083

Additional entries

Target	NP40-soluble protein abundance (concentration: 0.1mM)	NP40-soluble protein abundance (concentration: 0.5mM)
TIMM23 (UniProt O14925)	1.01 ± 0.052	0.944 ± 0.042
UniProt O00628 and related entries	1.1 ± 0.13	1.02 ± 0.14
AKR7A2 (UniProt O43488)	0.976 ± 0.015	0.9708 ± 0.0046
UniProt O15123 and related entries	0.935 ± 0.1	0.918 ± 0.071
UniProt O00429 and related entries	0.994 ± 0.028	0.987 ± 0.012
PDE6D (UniProt O43924)	1.08 ± 0.072	1 ± 0.052
LSM1 (UniProt O15116)	0.944 ± 0.072	0.961 ± 0.12
UniProt O43156	0.983 ± 0.062	0.965 ± 0.039
FOXO3 (UniProt O43524)	0.918 ± 0.065	0.908 ± 0.033
UniProt O15015 and related entries	1.01 ± 0.041	0.978 ± 0.044
CASC3 (UniProt O15234)	0.97 ± 0.044	0.991 ± 0.072
UniProt O43683 and related entries	1.02 ± 0.052	1.01 ± 0.036
UQCRQ (UniProt O14949)	0.858 ± 0.17	0.833 ± 0.23
AIP (UniProt O00170)	0.963 ± 0.023	0.954 ± 0.033
UniProt O60293 and related entries	1.01 ± 0.031	1.05 ± 0.036
UniProt O60313-2|E5KLJ5	1.02 ± 0.036	1.02 ± 0.042
TAF4 (UniProt O00268)	1 ± 0.11	1.07 ± 0.082
UniProt O14880 and related entries	1.03 ± 0.049	1.1 ± 0.092
CBX4 (UniProt O00257)	0.948 ± 0.058	0.979 ± 0.1
UniProt O43292 and related entries	1.03 ± 0.1	0.96 ± 0.04

Target	NP40-soluble protein abundance (concentration: 0.1mM)	NP40-soluble protein abundance (concentration: 0.5mM)
UniProt O14975 and related entries	1.08 ± 0.1	1.11 ± 0.058
ARPC3 (UniProt O15145)	0.979 ± 0.096	0.98 ± 0.12
AGPS (UniProt O00116)	1.05 ± 0.062	1.03 ± 0.044
SPTLC2 (UniProt O15270)	1.06 ± 0.061	1.02 ± 0.057
UniProt O43399 and related entries	0.849 ± 0.16	0.841 ± 0.19
MAFG (UniProt O15525)	0.955 ± 0.083	0.885 ± 0.084
UniProt O00217 and related entries	0.966 ± 0.016	0.979 ± 0.013
UniProt O60337 and related entries	1.16 ± 0.2	1.02 ± 0.018
UBFD1 (UniProt O14562)	0.999 ± 0.046	0.958 ± 0.012
UniProt O43251-6|O43251-8	1.14 ± 0.15	1.1 ± 0.085
UniProt O14735 and related entries	0.986 ± 0.07	0.944 ± 0.013
SLC16A3 (UniProt O15427)	1.04 ± 0.045	1.02 ± 0.047
UniProt O15037	0.952 ± 0.1	0.936 ± 0.1
EXTL3 (UniProt O43909)	0.962 ± 0.2	1.01 ± 0.024
UniProt O43159	0.966 ± 0.1	0.98 ± 0.1
UniProt O00442 and related entries	1.05 ± 0.053	1.05 ± 0.067
UBE2L6 (UniProt O14933)	0.9 ± 0.062	0.913 ± 0.15
TIMM44 (UniProt O43615)	0.993 ± 0.022	1.01 ± 0.051
UniProt O43303 and related entries	1.02 ± 0.083	1.01 ± 0.058
UniProt O43402	1.03 ± 0.045	0.98 ± 0.019
